Values of other authors, collected in patent publication US6586386B2, “Tablet of compacted particulate cleaning composition” (ISP Investments Inc., priority 2001, dated 2003).

Settings: grams of solid to form a saturated solution in 100 g of water at 20° C.

Water Solubility: >100 g/100 g
SMILES: NC(N)=O [Urea]
